The values that follow come from publication PMC7181697.

This assay concerns the target REV7^WT-SHLD3(1–82) (human). As to the kind of experiment: SEC; Superdex 200 Increase 10/300 GL, 20 mM Tris/HCl pH 8.0, 150 mM NaCl, 1% glycerol, 1 mM TCEP; proteins mixed and incubated 10 min on ice; 0.5 ml fractions on SDS-PAGE, Coomassie; both purified. For orientation: In gel filtration, larger molecules generally elute earlier.

No constants are given. Whether binding was seen depends on the method and setting. Binding calls can cover weak binding; strength is not graded here. Where a sequence is shown, tags or fusion partners need not be part of it.

B1: MBP-REV3(1847–2021) (domain or fragment, UniProt O60673 1847-2021)
chain: MLTPTPDSSPRSTSSPSQSKNGSFTPRTANILKPLMSPPSREEIMATLLDHDLSETIYQEPFCSNPSDVPEKPREIGGRLLMVETRLANDLAEFEGDFSLEGLRLWKTAFSAMTQNPRPGSPLRSGQGVVNKGSSNSPKMVEDKKIVIMPCKCAPSRQLVQVWLQAKEEYERSKK
For the molecule B1, the binding result is “binds”.
